Data from patent publication US20230192835A1.
No constants are given. Whether binding was seen depends on the method and setting. Some results given as binding are weak or reduced against the parent protein; the word gives no strength.

T1: human TL1A (Fitzgerald, Prod. #30R-AT070) (human) (UniProt O95150)
T1 sequence (biotinylated with EZ-Link Sulfo-NHS-LC-Biotin where used as soluble antigen, looked up): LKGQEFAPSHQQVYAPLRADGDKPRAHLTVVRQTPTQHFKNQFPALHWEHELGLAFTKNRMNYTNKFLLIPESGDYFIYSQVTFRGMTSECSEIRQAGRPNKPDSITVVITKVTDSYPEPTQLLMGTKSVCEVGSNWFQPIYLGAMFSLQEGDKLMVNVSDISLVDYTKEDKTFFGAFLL

B1: Clone 34 Fab (Fab, V domains shown)
VH: QVQLVQSGAEVKKPGASVKVSCKASGFDIQDTYMHWVRQAPGQGLEWMGRIEPASGHIKYDPKFQGRVTMTRDTSTSTVYMELSSLRSEDTAVYYCARSGGLPDWWGQGTTVTVSS
VL: EIVLTQSPGTLSLSPGERATLSCRASSSVSYMYWYQQKPGQAPRLLIYATSNLASGIPDRFSGSGSGTDFTLTISRLEPEDFAVYYCQQWEGNPRTFGGGTKLEIK
B2: Clone 3-17L V-A Fab (Fab, V domains shown)
VH: QVQLVQSGAEVKKPGASVKVSCKASGFDIQDTYMHWVRQAPGQGLEWMGRIDPASGHLKYDPKFQGRVTITRDTSASTAYMELSSLRSEDTAVYYCARSGGLPDMWGQGTTVTVSS
VL: EIVLTQSPGTLSLSPGERATLSCRASSSVSYMYWYQQKPGQAPRLLIYATSNLASGIPDRFSGSGSGTDFTLTISRLEPEDFAVYYCQQWQGNPRTFGGGTKLEIK
B3: Clone 47 Fab (Fab, V domains shown)
VH: QVQLVQSGAEVKKPGASVKVSCKASGFDIQDTYMHWVRQAPGQGLEWMGRIEPASGHVKYDPKFQTRVTMTRDTSTSTVYMELSSLRSEDTAVYYCARSGGLPDWWGQGTTVTVSS
VL: EIVLTQSPGTLSLSPGERATLSCRASSSVSYMYWYQQKPGQAPRLLIYATSNLASGIPDRFSGSGSGTDFTLTISRLEPEDFAVYYCQQWEGNPRTFGGGTKLEIK
B4: Clone 53 Fab (Fab, V domains shown)
VH: QVQLVQSGAEVKKPGASVKVSCKASGFDIQDTYMHWVRQAPGQGLEWMGRIEPASGHLKYDPKFQERVTMTRDTSTSTVYMELSSLRSEDTAVYYCARSGGLPDKWGQGTTVTVSS
VL: EIVLTQSPGTLSLSPGERATLSCRASSSVSYMYWYQQKPGQAPRLLIYATSNLASGIPDRFSGSGSGTDFTLTISRLEPEDFAVYYCQQWEGNPRTFGGGTKLEIK
B5: Clone XL3-10 Fab (Fab, V domains shown)
VH: QVQLVQSGAEVKKPGASVKVSCKASGFDIQDTYMHWVRQAPGQGLEWMGRIDPASGHTKYDPKFQGRATITTDTSASTAYLQLSSLRSEDTAVYYCARSGGLPDFWGQGTTVTVSS
VL: EIVLTQSPGTLSLSPGERATLSCRASSSVSYMYWYQQKPGQAPRLLIYATSNLASGIPDRFSGSGSGTDFTLTISRLEPEDFAVYYCQQWSGNPRSFGGGTKLEIK
B6: Clone H3-1 Fab (Fab, V domains shown)
VH: QVQLVQSGAEVKKPGASVKVSCKASGFDIQDTYMHWVRQAPGQGLEWMGRIDPASGHTKYDPKFQGRATITTDTSASTAYLQLSSLRSEDTAVYYCARSGGLPDLWGQGTTVTVSS
VL: EIVLTQSPGTLSLSPGERATLSCRASSSVSYMYWYQQKPGQAPRLLIYATSNLASGIPDRFSGSGSGTDFTLTISRLEPEDFAVYYCQQWSGNPRTFGGGTKLEIK
B7: Clone 14 Fab (Fab, V domains shown)
VH: QVQLVQSGAEVKKPGASVKVSCKASGFDIQDTYMHWVRQAPGQGLEWMGRIDPASGHIKYDPKFQKRVTMTRDTSTSTVYMELSSLRSEDTAVYYCARSGGLPDMWGQGTTVTVSS
VL: EIVLTQSPGTLSLSPGERATLSCRASSSVSYMYWYQQKPGQAPRLLIYATSNLASGIPDRFSGSGSGTDFTLTISRLEPEDFAVYYCQQWQGNPRTFGGGTKLEIK
B8: Clone X-V Fab (Fab, V domains shown)
VH: QVQLVQSGAEVKKPGASVKVSCKASGFDIQDTYMHWVRQAPGQGLEWMGRIDPASGHTKYDPKFQVRATITTDTSASTAYLQLSSLRSEDTAVYYCARSGGLPDFWGQGTTVTVSS
VL: EIVLTQSPGTLSLSPGERATLSCRASSSVSYMYWYQQKPGQAPRLLIYATSNLASGIPDRFSGSGSGTDFTLTISRLEPEDFAVYYCQQWSGNPRTFGGGTKLEIK
B9: Clone 52 Fab (Fab, V domains shown)
VH: QVQLVQSGAEVKKPGASVKVSCKASGFDIQDTYMHWVRQAPGQGLEWMGRIEPASGHIKYSPKFQGRVTMTRDTSTSTVYMELSSLRSEDTAVYYCARSGGLPDWWGQGTTVTVSS
VL: EIVLTQSPGTLSLSPGERATLSCGASSSVSYMYWYQQKPGQAPRLLIYATSNLASGIPDRFSGSGSGTDFTLTISRLEPEDFAVYYCQQWEGNPRTFGGGTKLEIK
B10: Clone 2 Fab (Fab, V domains shown)
VH: QVQLVQSGAEVKKPGASVKVSCKASGFDIQDTYMHWVRQAPGQGLEWMGRIEPASGHIKYSPKFQGRVTMTRDTSTSTVYMELSSLRSEDTAVYYCARSGGLPDWWGQGTTVTVSS
VL: EIVLTQSPGTLSLSPGERATLSCRASSSVSYMYWYQQKPGQAPRLLIYATSNLASGIPDRFSGSGSGTDFTLTISRLEPEDFAVYYCQQWEGNPRTFGGGTKLEIK
B11: Clone 23 Fab (Fab, V domains shown)
VH: QVQLVQSGAEVKKPGASVKVSCKASGFDIQDTYMHWVRQAPGQGLEWMGRIDPASGHLKYDPKFQNRVTMTRDTSTSTVYMELSSLRSEDTAVYYCARSGGLPDKWGQGTTVTVSS
VL: EIVLTQSPGTLSLSPGERATLSCRASSSVSYMYWYQQKPGQAPRLLIYATSNLASGIPDRFSGSGSGTDFTLTISRLEPEDFAVYYCQQWEGNPRTFGGGTKLEIK
B12: Clone 17L-1 Fab (Fab, V domains shown)
VH: QVQLVQSGAEVKKPGASVKVSCKASGFDIQDTYMHWVRQAPGQGLEWMGRIDPASGHLKYDPKFQRRVTMTRDTSTSTVYMELSSLRSEDTAVYYCARSGGLPDMWGQGTTVTVSS
VL: EIVLTQSPGTLSLSPGERATLSCRASSSVSYMYWYQQKPGQAPRLLIYATSNLASGIPDRFSGSGSGTDFTLTISRLEPEDFAVYYCQQWQGNPRTFGGGTKLEIK
B13: Clone L8mod Fab (Fab, V domains shown)
VH: QVQLVQSGAEVKKPGASVKVSCKASGFDIQDTYMHWVRQAPGQGLEWMGRIDPASGHTKYDPKFQGRATITTDTSASTAYLQLSSLRSEDTAVYYCARSGGLPDVWGQGTTVTVSS
VL: EIVLTQSPGTLSLSPGERATLSCRASSSVSYMYWYQQKPGQAPRLLIYATSNLASGIPDRFSGSGSGTDFTLTISRLEPEDFAVYYCQQWSGNPRTFGGGTKLEIK
B14: Clone 16 Fab (Fab, V domains shown)
VH: QVQLVQSGAEVKKPGASVKVSCKASGFDIQDTYMHWVRQAPGQGLEWMGRIDPASGHVKIDPKFQVRVTMTRDTSTSTVYMELSSLRSEDTAVYYCARSGGLPDMWGQGTTVTVSS
VL: EIVLTQSPGTLSLSPGERATLSCRASSSVSYMYWYQQKPGQAPRLLIYATSNLASGIPDRFSGSGSGTDFTLTISRLEPEDFAVYYCQQWQGNPRTFGGGTKLEIK
B15: Clone 46 Fab (Fab, V domains shown)
VH: QVQLVQSGAEVKKPGASVKVSCKASGFDIQDTYMHWVRQAPGQGLEWMGRIEPASGHVKYSPKFQVRVTMTRDTSTSTVYMELSSLRSEDTAVYYCARSGGLPDWWGQGTTVTVSS
VL: EIVLTQSPGTLSLSPGERATLSCRASSSVSYMYWYQQKPGQAPRLLIYATSNLASGIPDRFSGSGSGTDFTLTISRLEPEDFAVYYCQQWEGNPRTFGGGTKLEIK
B16: Clone 3-17L Fab (Fab, V domains shown)
VH: QVQLVQSGAEVKKPGASVKVSCKASGFDIQDTYMHWVRQAPGQGLEWMGRIDPASGHLKYDPKFQGRVTITRDTSASTVYMELSSLRSEDTAVYYCARSGGLPDMWGQGTTVTVSS
VL: EIVLTQSPGTLSLSPGERATLSCRASSSVSYMYWYQQKPGQAPRLLIYATSNLASGIPDRFSGSGSGTDFTLTISRLEPEDFAVYYCQQWQGNPRTFGGGTKLEIK
B17: Clone 17L Fab (Fab, V domains shown)
VH: QVQLVQSGAEVKKPGASVKVSCKASGFDIQDTYMHWVRQAPGQGLEWMGRIDPASGHLKYDPKFQVRVTMTRDTSTSTVYMELSSLRSEDTAVYYCARSGGLPDMWGQGTTVTVSS
VL: EIVLTQSPGTLSLSPGERATLSCRASSSVSYMYWYQQKPGQAPRLLIYATSNLASGIPDRFSGSGSGTDFTLTISRLEPEDFAVYYCQQWQGNPRTFGGGTKLEIK
B18: Clone XL3-15 Fab (Fab, V domains shown)
VH: QVQLVQSGAEVKKPGASVKVSCKASGFDIQDTYMHWVRQAPGQGLEWMGRIDPASGHTKYDPKFQGRATITTDTSASTAYLQLSSLRSEDTAVYYCARSGGLPDFWGQGTTVTVSS
VL: EIVLTQSPGTLSLSPGERATLSCRASSSVSYMYWYQQKPGQAPRLLIYATSNLASGIPDRFSGSGSGTDFTLTISRLEPEDFAVYYCQQWSRNPRTFGGGTKLEIK
B19: Clone XL3-6 Fab (Fab, V domains shown)
VH: QVQLVQSGAEVKKPGASVKVSCKASGFDIQDTYMHWVRQAPGQGLEWMGRIDPASGHTKYDPKFQGRATITTDTSASTAYLQLSSLRSEDTAVYYCARSGGLPDFWGQGTTVTVSS
VL: EIVLTQSPGTLSLSPGERATLSCRASSSVSYMYWYQQKPGQAPRLLIYATSNLASGIPDRFSGSGSGTDFTLTISRLEPEDFAVYYCSQWSGNPRTFGGGTKLEIK
B20: Clone E1 Fab (Fab, V domains shown)
VH: QVQLVQSGAEVKKPGASVKVSCKASGFDIQDTYMHWVRQAPGQGLEWMGRIEPASGHLKYDPKFQERVTMTRDTSTSTVYMELSSLRSEDTAVYYCARSGGLPDKWGQGTTVTVSS
VL: EIVLTQSPGTLSLSPGERATLSCGASSSVSYMYWYQQKPGQAPRLLIYATSNLASGIPDRFSGSGSGTDFTLTISRLEPEDFAVYYCQQWEGNPRTFGGGTKLEIK
B21: Clone A1 Fab (Fab, V domains shown)
VH: QVQLVQSGAEVKKPGASVKVSCKASGFDIQDTYMHWVRQAPGQGLEWMGRIDPASGHLKYDPKFQNRVTMTRDTSTSTVYMELSSLRSEDTAVYYCARSGGLPDKWGQGTTVTVSS
VL: EIVLTQSPGTLSLSPGERATLSCGASSSVSYMYWYQQKPGQAPRLLIYATSNLASGIPDRFSGSGSGTDFTLTISRLEPEDFAVYYCQQWEGNPRTFGGGTKLEIK

Target: T1, human TL1A (Fitzgerald, Prod. #30R-AT070) (human)
Test: ELISA, both formats (immobilised TL1A; captured Fab with soluble biotinylated TL1A)

binding, binds:
B1
B2
B3
B4
B5
B6
B7
B8
B9
B10
B11
B12
B13
B14
B15
B16
B17
B18
B19
B20
B21
